Assay results reported in patent US20130309252A1.
Results are given in words; binding and its absence hold for the method and conditions named. Some binding calls cover weakened binding; strength is not graded here.

Legend:
[1] = molecular target: GST-PDZI′+II′ recombinant Grasp55 protein (murine); assay: HTRF, biotinylated peptide and GST fusion
[2] = molecular target: GST-PDZI′ recombinant Grasp55 protein (murine); assay: HTRF, biotinylated peptide and GST fusion
[3] = molecular target: GST-GRASP55 PDZ I+II (murine); assay: ELISA, GST fusion on glutathione plate, biotinylated peptide, streptavidin-HRP

Measured: binding

NYIRTSEEGDFRHKSSFVI (biotinylated (position not given)) [biotinylated peptide corresponding to the last 19 amino-acids of JAM-C]
binds: all assays above
